# Data taken from the supplement of paper PMC7646827.
# Counter-ions that a name gives are not always drawn. Repeats are few or missing, and single values can be far off.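 All cells are established human bladder cancer lines, one derived from a patient-derived xenograft. A luminescent ATP assay measured viability as percent inhibition relative to vehicle across seven dilutions. The paper rates scores above 59 very active, 30–59 active, 21–29 semi-active, 9–20 low active, below 9 inactive.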
# Tests used:
# Assay in all cases: drug sensitivity score DSS3 (score 0-100); higher = more sensitive; extreme values may be limits of the assay
# Details in all cases: culture: 3D, ultra-low attachment; treatment time: 5 days
# SCaBER = test system: SCaBER
# UM-UC-1 = test system: UM-UC-1
# BC8149 = test system: BC8149
# J82 = test system: J82
# T-24 = test system: T-24
# UM-UC-9 = test system: UM-UC-9
# UM-UC-15 = test system: UM-UC-15
# UM-UC-12 = test system: UM-UC-12
# UM-UC-18 = test system: UM-UC-18
# 5637 = test system: 5637
# UM-UC-3 = test system: UM-UC-3
# UM-UC-17 = test system: UM-UC-17
# UM-UC-6 = test system: UM-UC-6
# UM-UC-5 = test system: UM-UC-5
# UM-UC-14 = test system: UM-UC-14
# SW780 = test system: SW780
# TCCSUP = test system: TCCSUP
SMILES,drug sensitivity score DSS3 (SCaBER),drug sensitivity score DSS3 (UM-UC-1),drug sensitivity score DSS3 (BC8149),drug sensitivity score DSS3 (J82),drug sensitivity score DSS3 (T-24),drug sensitivity score DSS3 (UM-UC-9),drug sensitivity score DSS3 (UM-UC-15),drug sensitivity score DSS3 (UM-UC-12),drug sensitivity score DSS3 (UM-UC-18),drug sensitivity score DSS3 5637,drug sensitivity score DSS3 (UM-UC-3),drug sensitivity score DSS3 (UM-UC-17),drug sensitivity score DSS3 (UM-UC-6),drug sensitivity score DSS3 (UM-UC-5),drug sensitivity score DSS3 (UM-UC-14),drug sensitivity score DSS3 (SW780),drug sensitivity score DSS3 (TCCSUP)
CC(=O)c1cnc2ccc(-c3cc(Cl)c(O)c(Cl)c3)nc2c1N[C@H]1CC[C@H](CN(C)C)CC1 [OTSSP167] (max dose 10000 nM),66.4,58.6,70,53.8,24.7,52.1,58.7,0,43.5,65.6,58.9,68.1,46.7,52.8,19.9,3.04,57.6
Cc1sc2c(c1C)C(c1ccc(Cl)cc1)=N[C@@H](CC(=O)Nc1ccc(O)cc1)c1nnc(C)n1-2 [OTX015] (max dose 10000 nM),0,0,7.18,0.0985,0.433,3.55,1.32,13.3,0,6.2,0.436,8.6,0,1.3,1.36,0,11.8
COC1=CC(c2cc3ccccc3[nH]2)=N/C1=C\c1[nH]c(C)cc1C [Obatoclax Mesylate (GX15-070)] (max dose 10000 nM),6.52,0,6.61,1.91,0.855,0,4.67,6.98,1.3,4.61,3.48,1,5.35,7.85,0,0,2.56
CC(C)(F)C[C@H](N[C@@H](c1ccc(-c2ccc(S(C)(=O)=O)cc2)cc1)C(F)(F)F)C(=O)NC1(C#N)CC1 [Odanacatib (MK-0822)] (max dose 10000 nM),0,0,0,0,0,0,0,0,0,0,0,0,0.00153,0,1.56,0,0
CS(=O)(=O)n1cc2c(n1)CN([C@H]1CO[C@H](c3cc(F)ccc3F)[C@@H](N)C1)C2 [Omarigliptin (MK-3102)] (max dose 10000 nM),0,0,0.769,0,0,0,11.2,6.85,0.0453,0.588,0,0.112,0,0,0,0,0
O=C(O)C(=O)O.[NH-][C@@H]1CCCC[C@H]1[NH-].[Pt+2] [Oxaliplatin] (max dose 10000 nM),4.73,0,2.19,0,0,0,0,0,0.884,0,0.68,0,0,0,0,0,1.87
COc1cc(OCc2cccc(-c3ccccc3)c2C)cc(OC)c1CN1CCCC[C@H]1C(=O)O [PD-1/PD-L1 inhibitor 1] (max dose 10000 nM),0,0,0,0,0,0,1.12,0,0,0,0,0,0,0,0,0,0
COc1ccccc1C(=O)Nc1cc2c(cc1N1CCCC1)n(C)c(=O)n2C [PFI-4] (max dose 10000 nM),0,0,0,0,0,0,0,0,0,0,0.0692,0,0.212,0,8.3e-07,0,0
CCCc1ccc(OCC(=O)N(Cc2nc(-c3cccnc3)no2)C(C)C)cc1 [PI-1840] (max dose 10000 nM),0,1.22,0.337,0,0,0,0,0,0,0,1.18,0,0,0,0,0,0
CC(=O)Nc1nc(C)c(-c2ccc(Cl)c(S(=O)(=O)NCCO)c2)s1 [PIK-93] (max dose 10000 nM),1.92,0,2.76,0.56,0.981,0,0,1.7,0,1.26,0,0,0.459,0,0,0,4.5
C[C@]12CCCN1CC1=NNC(=O)c3cc(F)cc4[nH]c2c1c34 [Pamiparib (BGB-290)] (max dose 10000 nM),0,0,0,0.031,0.0345,0,12.4,0,0,0,0,0,0,0,0,0,0.435
Cc1[nH]c2ccccc2c1CCNCc1ccc(/C=C/C(=O)NO)cc1 [Panobinostat (LBH589)] (max dose 10000 nM),26,21.4,38.8,26.2,39.7,26.2,60.3,36,40.1,39.5,35.2,35.3,22.2,21.1,37.4,8.71,63
Nc1nc2[nH]cc(CCc3ccc(C(=O)N[C@@H](CCC(=O)O)C(=O)O)cc3)c2c(=O)[nH]1 [Pemetrexed] (max dose 10000 nM),0,5.38,0,0,0,1.04,0,0,23.1,12.1,0,26.5,0,0,5.7,0,15.5
COc1ccc(-c2nc3cc(C4=NNC(=O)CC4C)ccc3[nH]2)cc1 (stereo not drawn) [Pimobendan] (max dose 10000 nM),0,0,0.563,0,0,0,4.49,0,0.604,0,0.807,0.643,0.396,0,0,0,0.398
CCc1ccc(CCOc2ccc(CC3SC(=O)NC3=O)cc2)nc1 (stereo not drawn) [Pioglitazone] (max dose 10000 nM),0,0,0,0,0,0,0,0,0,0,0,0,0,0,0,0,0
Clc1ccc(CCCOCCCN2CCCCC2)cc1 [Pitolisant hydrochloride] (max dose 10000 nM),0,0,0.105,0,0,0,0,0.125,0,0,0,0,1.84,0.0775,0,0.441,0
"c1cc(CN2CCCNCCNCCCNCC2)ccc1CN1CCCNCCNCCCNCC1 [Plerixafor (AMD3100), Plerixafor 8HCl (AMD3100 8HCl)] (max dose 10000 nM)",0,0,0,0,0,0,0,0,0,0.862,0,0.0615,0,0,0,0,0.035
C=CC(=O)N1CCC(Oc2cc3c(Nc4ccc(Cl)c(Cl)c4F)ncnc3cc2OC)CC1 [Poziotinib] (max dose 10000 nM),53.3,2.41,14.1,1.31,8.67,24.4,9.41,23.8,43,50.5,0,0.186,18.8,0,2.11,0,21.2
CCCCc1nc2cc(/C=C/C(=O)NO)ccc2n1CCN(CC)CC [Pracinostat (SB939)] (max dose 10000 nM),3.71,4.23,18,2.77,6.5,4.02,25,8.29,11.6,12.2,6.81,10.3,9.32,3.73,11.9,3.15,24.6
CC(O)Cn1cnc2c1c(=O)n(C)c(=O)n2C (stereo not drawn) [Proxyphylline] (max dose 10000 nM),0,0,0,0,0,0,0,0,0.168,0.0672,0,0,0,0,0,0,0
Nc1ccc2ncnc(NCCc3ccc(Oc4ccccc4)cc3)c2c1 [QNZ (EVP4593)] (max dose 10000 nM),2.35,22.8,0,0,0,14.2,0.245,2.68,0,6.6,0,20.1,2.54,6.74,12.8,2.09,5.57
O=c1c(O)c(-c2ccc(O)c(O)c2)oc2cc(O)cc(O)c12 [Quercetin] (max dose 10000 nM),0.788,0,0,0,0,0,0,0,0,0,0,0,0,0,0,0,0
CC(C)(C)c1cc(NC(=O)Nc2ccc(-c3cn4c(n3)sc3cc(OCCN5CCOCC5)ccc34)cc2)no1 [Quizartinib (AC220)] (max dose 10000 nM),0,0.716,1.42,0,0,0,1.59,0,0,0,0,1.59,0.435,0,0.615,0.274,1.83
COc1cc(Nc2ncc(F)c(Nc3ccc4c(n3)NC(=O)C(C)(C)O4)n2)cc(OC)c1OC [R406 (free base)] (max dose 10000 nM),0,0,0,0,0.492,0,0,0,0,0,0,0,0,0,0.0242,0,0.0461

# Random excerpt: 2 compounds from above
SMILES,drug sensitivity score DSS3 (SCaBER),drug sensitivity score DSS3 (UM-UC-1),drug sensitivity score DSS3 (BC8149),drug sensitivity score DSS3 (J82),drug sensitivity score DSS3 (T-24),drug sensitivity score DSS3 (UM-UC-9),drug sensitivity score DSS3 (UM-UC-15),drug sensitivity score DSS3 (UM-UC-12),drug sensitivity score DSS3 (UM-UC-18),drug sensitivity score DSS3 5637,drug sensitivity score DSS3 (UM-UC-3),drug sensitivity score DSS3 (UM-UC-17),drug sensitivity score DSS3 (UM-UC-6),drug sensitivity score DSS3 (UM-UC-5),drug sensitivity score DSS3 (UM-UC-14),drug sensitivity score DSS3 (SW780),drug sensitivity score DSS3 (TCCSUP)
CCc1ccc(CCOc2ccc(CC3SC(=O)NC3=O)cc2)nc1 (stereo not drawn) [Pioglitazone] (max dose 10000 nM),0,0,0,0,0,0,0,0,0,0,0,0,0,0,0,0,0
CCCc1ccc(OCC(=O)N(Cc2nc(-c3cccnc3)no2)C(C)C)cc1 [PI-1840] (max dose 10000 nM),0,1.22,0.337,0,0,0,0,0,0,0,1.18,0,0,0,0,0,0
